In assay [1] the target is T1, Escherichia coli L-tartrate dehydratase α subunit (E. coli) (UniProt P05847).
T1 sequence: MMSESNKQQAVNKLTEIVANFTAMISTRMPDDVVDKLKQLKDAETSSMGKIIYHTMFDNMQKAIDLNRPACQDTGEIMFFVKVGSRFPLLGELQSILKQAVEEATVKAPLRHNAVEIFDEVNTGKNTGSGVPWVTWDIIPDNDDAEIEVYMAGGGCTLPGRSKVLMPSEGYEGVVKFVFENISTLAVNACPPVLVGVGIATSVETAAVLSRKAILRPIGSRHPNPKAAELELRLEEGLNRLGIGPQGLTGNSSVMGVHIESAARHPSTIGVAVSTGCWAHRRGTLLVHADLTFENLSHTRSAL
Nature of the assay: co-purification.

Assay [2] deals with T1, Escherichia coli L-tartrate dehydratase α subunit (E. coli). Nature of the assay: SEC. Background: Size exclusion chromatography separates by hydrodynamic size, large species first.

Results are given in words; binding and its absence hold for the method and conditions named. Some entries that bind do so weakly or less than the wild type.

B1: Escherichia coli L-tartrate dehydratase β subunit (enzyme, UniProt P0AC35 1-201)
chain: MKKILTTPIKAEDLQDIRVGDVIYLTGTLVTCRDVCHRRLIELKRPIPYDLNGKAIFHAGPIVRKNGDKWEMVSVGPTTSMRMESFEREFIEQTGVKLVVGKGGMGPLTEEGCQKFKALHVIFPAGCAVLAATQVEEIEEVHWTELGMPESLWVCRVKEFGPLIVSIDTHGNNLIAENKKLFAERRDPIVEEICEHVHYIK
With B1, the binding result in assay [1] and in assay [2] was “binds” each time.

(Values after publication doi:10.1101/2023.06.17.545066 (bioRxiv, 2023).)
